Reference: patent US20100105569A1 (AbbVie / Abbott, published 2010)
No constants are given. Whether binding was seen depends on the method and setting. Binding seen in cells or lysates may run through a third protein. Some entries that bind do so weakly or less than the wild type.

Sequences of proteins named here, by UniProt entry; tags and fusion partners are left off. Residues count along the entry.
UniProt P01375, residues 77-233: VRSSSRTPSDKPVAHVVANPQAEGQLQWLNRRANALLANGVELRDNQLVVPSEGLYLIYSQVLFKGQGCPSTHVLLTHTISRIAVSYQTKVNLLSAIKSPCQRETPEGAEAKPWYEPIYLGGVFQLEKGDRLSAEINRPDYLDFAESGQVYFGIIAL

Target: human TNFα (biotinylated) (human) (UniProt P01375)
Experiment: pull-down of 35S-labelled mRNA-scFv and free scFv by biotinylated antigen on streptavidin magnetic beads (FIG. 4)

binding: binds
B1: MAK195 scFv (scFv)
scFv: MEVQLKESGPGLVAPSQSLSITCTVSGFSLTDYGVNWVRQPPGKGLEWLGMIWGDGSTDYDSTLKSRLSISKDNSKSQIFLKMNSLQTDDTARYYCAREWHHGPVAYWGQGTLVTVSAGGGGSGGGGSGGGGSDIVMTQSHKFMSTTVGDRVSITCKASQAVSSAVAWYQQKPGQSPKLLIYWASTRHTGVPDRFTGSGSVTDFTLTIHNLQAEDLALYYCQQHYSTPFTFGSGTKLEIKRTVAAPSVFIFPPSDYKDDDDKASAI
